Molecules are shown by their SMILES. ± gives the standard deviation of the averaged measurements. Over roughly 1,600 compounds, “normalized growth (OD600, IQM-normalized) in LPM” has its median near 1; the lowest 2% begin near 0.014. Some of the results follow.

For this experiment, the system named is Salmonella enterica serovar Typhimurium SL1344. The experiment can be described thus: normalized growth (OD600, IQM-normalized) in LPM (fraction of plate interquartile mean); higher = more bacterial growth (less inhibition). The conditions noted are these: LPM pH 5.8; 10 µM; 16 h.
In turn, `Cc1nc(Nc2ncc(C(=O)Nc3c(C)cccc3Cl)s2)cc(N2CCN(CCO)CC2)n1` registered a normalized growth of 1.11 ± 0.17.

`CCN(CCO)CCCC(C)Nc1ccnc2cc(Cl)ccc12` (stereo not drawn) came in with a normalized growth of 0.947 ± 0.068.

Turning to `CN(C)c1ccc(C(=C2C=CC(=[N+](C)C)C=C2)c2ccc(N(C)C)cc2)cc1`, the normalized growth was 0.992 ± 0.034.

Molecule `CC(=O)[C@H]1CC[C@H]2[C@@H]3CC=C4C[C@@H](O)CC[C@]4(C)[C@H]3CC[C@]12C` returned a normalized growth of 0.938 ± 0.086.

The molecule `COc1ccc(CC2c3cc(OC)c(OC)cc3CC[N+]2(C)CCC(=O)OCCCCCOC(=O)CC[N+]2(C)CCc3cc(OC)c(OC)cc3C2Cc2ccc(OC)c(OC)c2)cc1OC` (stereo not drawn) had a normalized growth of 0.986 ± 0.015.

`Cc1nc(-c2ccc(OCC(C)C)c(C#N)c2)sc1C(=O)O` came in with a normalized growth of 1.02 ± 0.038.

In turn, `CC(COc1ccccc1)NC(C)C(O)c1ccc(O)cc1` (stereo not drawn) displayed a normalized growth of 1 ± 0.016.

With `CC(C)(C)c1ccc(C(O)CCCN2CCC(C(O)(c3ccccc3)c3ccccc3)CC2)cc1` (stereo not drawn), the normalized growth is 0.8844 ± 0.0053.

In turn, `CCOC(=O)NNc1nncc2ccccc12` gave a normalized growth of 1.15 ± 0.049.

Molecule `CO/N=C1\C[C@]2(C[C@@H]3C[C@@H](C/C=C(\C)C[C@@H](C)/C=C/C=C4\CO[C@@H]5[C@H](O)C(C)=C[C@@H](C(=O)O3)[C@]45O)O2)O[C@H](/C(C)=C/C(C)C)[C@H]1C` gave a normalized growth of 0.91 ± 0.038.

In turn, `CCCCN1CCCCC1C(=O)Nc1c(C)cccc1C` (stereo not drawn) showed a normalized growth of 1.05 ± 0.033.

In the case of `COc1ccnc(C[S+]([O-])c2nc3cc(OC(F)F)ccc3[nH]2)c1OC` (stereo not drawn), the normalized growth was 0.889 ± 0.0098.

Take `Nc1ccn([C@@H]2O[C@H](CO)[C@@H](O)[C@@H]2O)c(=O)n1`: the normalized growth was determined as 1.01 ± 0.067.

In turn, `O=c1[nH]c(=O)c2ccccc2o1` registered a normalized growth of 0.902 ± 0.03.

`Nc1ccc(S(=O)(=O)Nc2ccccn2)cc1` registered a normalized growth of 0.992 ± 0.025.

`CO[C@H]1C[C@H](O[C@H]2[C@H](C)[C@@H](O[C@@H]3O[C@H](C)C[C@H](N(C)C)[C@H]3O)[C@@H](C)C[C@@]3(CO3)C(=O)[C@H](C)[C@@H](O)[C@@H](C)[C@@H](C)OC(=O)[C@@H]2C)O[C@@H](C)[C@@H]1O`: the normalized growth turned out to be 0.94 ± 0.074.

`CN(C)CCCN1c2ccccc2Sc2ccc(Cl)cc21` had a normalized growth of 1.06 ± 0.15.

`O=c1ccc2ccccc2o1`: the normalized growth worked out at 0.926 ± 0.037.

As to `COc1cc([C@@H]2c3cc4c(cc3[C@@H](O[C@@H]3O[C@@H]5CO[C@@H](c6cccs6)O[C@H]5[C@H](O)[C@H]3O)[C@H]3COC(=O)[C@H]23)OCO4)cc(OC)c1O`, the normalized growth was 0.882 ± 0.027.

As to `O=c1[nH]cnc2c1ncn2[C@@H]1O[C@H](CO)[C@@H](O)[C@H]1O`, the normalized growth stood at 1.13 ± 0.034.

`N[C@@H](Cc1ccc(O)cc1)C(=O)O` registered a normalized growth of 0.979 ± 0.02.

`O=C(COc1ccc(Cl)cc1)N1CCN(Cc2ccc3c(c2)OCO3)CC1` showed a normalized growth of 0.928 ± 0.019.

As to `CCN(CC)CCNc1ccc(CO)c2sc3ccccc3c(=O)c12`, the normalized growth is 0.916 ± 0.067.

Consider `CCOc1ccc2nc3cc(N)ccc3c(N)c2c1`, for which the normalized growth turned out to be 0.799 ± 0.086.

Molecule `Nc1nc(NC2CC2)c2ncn([C@H]3C=C[C@@H](CO)C3)c2n1` showed a normalized growth of 0.9084 ± 0.0021.

As to `CN(C)c1ccc(O)c2c1C[C@H]1C[C@H]3[C@H](N(C)C)C(O)=C(C(N)=O)C(=O)[C@@]3(O)C(O)=C1C2=O`, the normalized growth came to 0.0111 ± 0.00049.

The molecule `CCCCCCCCCCCCCCCCOP(=O)([O-])OCC[N+](C)(C)C` registered a normalized growth of 0.911 ± 0.023.

`Cc1ccsc1/C=C/C1=NCCCN1C` registered a normalized growth of 1.096 ± 0.0076.

The molecule `Cc1ccc(S(=O)(=O)NC(=O)NN2CCCCCC2)cc1` displayed a normalized growth of 0.949 ± 0.02.

`COc1cccc(OC)c1C(=O)N[C@@H]1C(=O)N2[C@@H]1SC(C)(C)[C@@H]2C(=O)O` gave a normalized growth of 1.12 ± 0.019.

With `C[C@]12CC[C@@H]3c4ccc(OS(=O)(=O)O)cc4CC[C@H]3[C@@H]1CCC2=O`, the normalized growth came to 1.06 ± 0.065.

`CCN(CC)CCOC(=O)C(c1ccccc1)c1ccccc1` displayed a normalized growth of 1.12 ± 0.041.

The molecule `CCOC(=O)c1ccc(N)cc1` yielded a normalized growth of 0.96 ± 0.015.

`CC(C)(C)CC(C)(C)c1ccc(O)c(Cc2ccc(Cl)cc2Cl)c1` came in with a normalized growth of 0.861 ± 0.066.

The molecule `COc1cc(NC(C)CCCN)c2ncccc2c1` (stereo not drawn) registered a normalized growth of 0.937 ± 0.025.

`CCCCC1(COC(=O)CCC(=O)O)C(=O)N(c2ccccc2)N(c2ccccc2)C1=O` returned a normalized growth of 1.04 ± 0.39.

In the case of `CN(C)[C@@H]1C(O)=C(C(N)=O)C(=O)[C@@]2(O)C(O)=C3C(=O)c4c(O)cccc4[C@@](C)(O)[C@H]3[C@H](O)[C@@H]12`, the normalized growth is 0.0138 ± 0.00025.

Regarding `NC(N)=Nc1nc(CSCC/C(N)=N/S(N)(=O)=O)cs1`, the normalized growth stood at 1.13 ± 0.025.

Molecule `Cc1cc(-c2ccccc2)nnc1NCCN1CCOCC1` showed a normalized growth of 0.921 ± 0.13.

Turning to `CSc1ccc2c(c1)N(CCC1CCCCN1C)c1ccccc1S2` (stereo not drawn), the normalized growth turned out to be 1.17 ± 0.051.

On to `CC1=C(/C=C/C(C)=C/C=C/C(C)=C\C(=O)O)C(C)(C)CCC1`, for which the normalized growth came out at 0.957 ± 0.099.

For `CC/C(=C(/CC)c1ccc(O)cc1)c1ccc(O)cc1`, the normalized growth was 0.988 ± 0.036.

As to `Cl.N=C(N)NCCC[C@H](N)C(=O)O`, the normalized growth is 1 ± 0.042.

`C=CCOC(Cn1ccnc1)c1ccc(Cl)cc1Cl` (stereo not drawn): the normalized growth was 1.11 ± 0.033.

In the case of `CC1(C)[C@@H](OC(=O)CCC(=O)O)CC[C@]2(C)[C@H]3C(=O)C=C4[C@@H]5C[C@@](C)(C(=O)O)CC[C@]5(C)CC[C@@]4(C)[C@]3(C)CC[C@@H]12`, the normalized growth was determined as 0.84 ± 0.068.

The molecule `CC(CN(C)C)CN1c2ccccc2Sc2ccccc21` (stereo not drawn) gave a normalized growth of 0.862 ± 0.044.

For the molecule `C#C[C@]1(O)CC[C@H]2[C@@H]3CCC4=CC(=O)CC[C@@H]4[C@H]3CC[C@@]21CC`, the normalized growth was 1.16 ± 0.084.

Consider `CC(C)CCCC(C)NC(C)C` (stereo not drawn), for which the normalized growth came to 0.993 ± 0.022.

The values are drawn from the supplement of paper PMC6331611.
